In the supplement of paper PMC12823440, “Inhibitors supercharge kinase turnover through native proteolytic circuits” (Nature, 2025):
The other results are listed elsewhere or left out. The calls rarely recur for the same compound in another form.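 Kinases, fused to nanoluciferase, were expressed in K562 cells; luminescence was measured every 4 h from 2 to 18 h as percent of control (DMSO = 100%, positive control = 0%). A time point is decreased if signal falls significantly (2 sigma). Hits were called by the authors by a rule that is not shown; the count of time points alone does not decide it.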

Chains of the proteins cited; added tags and fusions are not shown. Lines headed by an entry give the natural chain unless they say otherwise; changes in a name come on top.
UniProt Q06187: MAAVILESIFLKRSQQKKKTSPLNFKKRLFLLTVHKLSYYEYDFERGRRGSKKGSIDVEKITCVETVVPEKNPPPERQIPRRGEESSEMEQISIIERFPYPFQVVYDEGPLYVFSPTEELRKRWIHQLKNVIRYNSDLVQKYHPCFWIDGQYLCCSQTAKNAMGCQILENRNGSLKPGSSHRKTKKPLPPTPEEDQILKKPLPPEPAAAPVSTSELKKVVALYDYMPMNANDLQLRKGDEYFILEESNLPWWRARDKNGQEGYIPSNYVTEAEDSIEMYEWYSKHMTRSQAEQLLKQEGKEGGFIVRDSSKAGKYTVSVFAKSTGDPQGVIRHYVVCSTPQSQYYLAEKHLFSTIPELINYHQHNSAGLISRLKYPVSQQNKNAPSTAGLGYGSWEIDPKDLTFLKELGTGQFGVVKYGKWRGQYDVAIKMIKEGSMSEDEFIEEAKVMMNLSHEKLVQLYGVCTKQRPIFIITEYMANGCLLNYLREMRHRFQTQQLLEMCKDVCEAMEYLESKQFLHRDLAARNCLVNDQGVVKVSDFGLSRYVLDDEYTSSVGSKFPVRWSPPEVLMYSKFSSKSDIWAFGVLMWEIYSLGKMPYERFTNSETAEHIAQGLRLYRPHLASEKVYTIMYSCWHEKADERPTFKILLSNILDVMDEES

Each compound was assayed against BTK (UniProt Q06187) (assay: kinase-Nluc reporter destabilization hit call (1 = scored as downregulated) (binary); higher = compound decreases kinase abundance). Settings: K562; 2-18 h.

kinase-Nluc reporter destabilization hit call, inactive:
CC(C)CCN1c2nc(Nc3cc(F)c(O)c(F)c3)ncc2N(C)C(=O)C1C (configuration not stated) (2.5 µM) 0, CC(C)=CC[C@@H](O)C1=CC(=O)c2c(O)ccc(O)c2C1=O [Shikonin] (10 µM) 0, CCC(=O)Nc1cccc(Oc2nc(Nc3ccc(N4CCN(C)CC4)cc3OC)ncc2Cl)c1 (10 µM) 0, CC(C)=CCC/C(C)=C/CC/C(C)=C/C=C/C(C)=C/C(=O)O [Peretinoin] (10 µM) 0, COc1ccc2c(Oc3ccc4c(C(=O)Nc5ccccc5N)cccc4c3)ccnc2c1 [Chiauranib] (10 µM) 0, Cc1nn(C)cc1-c1nc2c(N3CCN(Cc4ccc(Cl)cc4)CC3)c(Cl)cnc2[nH]1 (10 µM) 0, CNC(=O)c1cc2c(Oc3ccc(NC(=O)C4(C(=O)Nc5ccc(F)cc5)CC4)cc3)ccnc2cc1OC (2.5 µM) 0, O=C(Nc1cccnc1)c1cc(-c2ccnc(F)c2)ccc1OCc1ccccc1 (10 µM) 0, CN(C)c1ccc(-c2nc3ncc(Cl)c(N4CCN(CC(=O)Nc5nccs5)CC4)c3[nH]2)cc1 (2 µM) 0, Cc1cc(C(=O)NC(C)(C)C)cc(C#Cc2ccc3c4c(oc3c2)C(C)(C)c2cc(NS(C)(=O)=O)ccc2C4=O)n1 (10 µM) 0, O=C(O)c1cc(N(Cc2ccccc2O)Cc2cc(O)ccc2O)ccc1O [Lavendustin A] (10 µM) 0, C[C@@H](Nc1ncnc2[nH]c(-c3ccc(O)cc3)cc12)c1ccccc1 (2.5 µM) 0
